In paper PMC12239786:
Results are given in words; binding and its absence hold for the method and conditions named. For some assays here: In cells and extracts the contact can be indirect. Some results given as binding are weak or reduced against the parent protein; the word gives no strength.

How the values were obtained:
[1] = biological target: Strep-tagged SARS-CoV-2 Nsp14 (SARS-CoV-2) (UniProt P0DTD1); experiment: pull-down
[2] = biological target: Strep-tagged SARS-CoV-2 Nsp13 (SARS-CoV-2) (UniProt P0DTD1); experiment: pull-down
[3] = biological target: Strep-tagged SARS-CoV-2 Nsp9 (SARS-CoV-2) (UniProt P0DTD1); experiment: pull-down
recombinant AGO2 protein = recombinant AGO2 protein (UniProt Q9UKV8); experiment: pull-down; recombinant AGO2 alone or mixed with recombinant Nsp9, pulled down with an AGO2 antibody, Coomassie blue staining; both purified

Row | Substance | binding [1] | binding [2] | binding [3] | binding (recombinant AGO2 protein)
1 | Argonaute 2 (AGO2), endogenous (from UniProt Q9UKV8 1-859) | binds | binds | binds | 
2 | HuR, endogenous (from UniProt Q15717 1-326) |  |  | binds | 
3 | recombinant His-Nsp9 (from UniProt P0DTD1 4141-4253) |  |  |  | binds
